Assay: general procedure: Fmoc solid-phase peptide synthesis; Wang resin; DIC/HOBt/DMAP; HATU/DIEA for the last coupling
Conditions: whole synthesis, LC/MS (Finnigan AQA Thermo Quest; Alliance Waters 2695), scale of the general procedure 1 g resin, 1.20 mmol

Substance	purity (crude or final not stated) (6 TFA) [%]	purity (crude or final not stated) (TFA) [%]
H-Cpa-Gly-Gly-Phe-Leu-Arg-Arg-Ile-Arg-Pro-Lys	95.0	
H-Cpa-Gly-Gly-Phe-Leu		99.4

From patent US20050113295A1 (priority 2003, published 2005)
